From the supplement of paper PMC8728848
Some of the results follow.

How the values were obtained:
Assay in all cases: glycan array binding signal (z-score within array); higher = stronger binding
Conditions in all cases: glycan notation: IUPAC condensed, linker removed
[1] = biological target: Fuc(a1-2)Gal6S(b1-3)GlcNAc6S
Procedure, shortened: (§1)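 The binding signal is a Z-score computed within each array. Data were drawn from 3228 arrays in the Consortium for Functional Glycomics database, restricted to those with a known protein sequence. Scores were averaged over arrays of the same protein sequence at different concentrations or buffers, and over linkers, and negative values can be taken as non-binding.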

Fuc(a1-2)Gal6S(b1-4)Glc = biological target: Fuc(a1-2)Gal6S(b1-4)Glc
Procedure, shortened: as §1

[2] = biological target: Fuc(a1-2)Gal6S(b1-4)Glc6S
Procedure, shortened: as §1

Fuc(a1-2)[Gal(a1-3)]Gal = biological target: Fuc(a1-2)[Gal(a1-3)]Gal
Procedure, shortened: as §1

[3] = biological target: Fuc(a1-2)[Gal(a1-3)]Gal(b1-3)GalNAc
Procedure, shortened: as §1

[4] = biological target: Fuc(a1-2)[Gal(a1-3)]Gal(b1-3)GalNAc(b1-3)Gal(a1-4)Gal(b1-4)Glc
Procedure, shortened: as §1

[5] = biological target: Fuc(a1-2)[Gal(a1-3)]Gal(b1-3)GlcNAc
Procedure, shortened: as §1

[6] = biological target: Fuc(a1-2)[Gal(a1-3)]Gal(b1-3)GlcNAc(b1-2)Man(a1-3)[Fuc(a1-2)[Gal(a1-3)]Gal(b1-3)GlcNAc(b1-2)Man(a1-6)]Man(b1-4)GlcNAc(b1-4)GlcNAc
Procedure, shortened: as §1

[7] = biological target: Fuc(a1-2)[Gal(a1-3)]Gal(b1-3)GlcNAc(b1-2)Man(a1-3)[Fuc(a1-2)[Gal(a1-3)]Gal(b1-3)GlcNAc(b1-2)Man(a1-6)]Man(b1-4)GlcNAc(b1-4)[Fuc(a1-6)]GlcNAc
Procedure, shortened: as §1

[8] = biological target: Fuc(a1-2)[Gal(a1-3)]Gal(b1-3)GlcNAc(b1-3)GalNAc
Procedure, shortened: as §1

[9] = biological target: Fuc(a1-2)[Gal(a1-3)]Gal(b1-3)GlcNAc(b1-6)GalNAc
Procedure, shortened: as §1

[10] = biological target: Fuc(a1-2)[Gal(a1-3)]Gal(b1-4)Glc
Procedure, shortened: as §1

[11] = biological target: Fuc(a1-2)[Gal(a1-3)]Gal(b1-4)GlcNAc
Procedure, shortened: as §1

[12] = biological target: Fuc(a1-2)[Gal(a1-3)]Gal(b1-4)GlcNAc(b1-2)Man
Procedure, shortened: as §1

[13] = biological target: Fuc(a1-2)[Gal(a1-3)]Gal(b1-4)GlcNAc(b1-2)Man(a1-3)[Fuc(a1-2)[Gal(a1-3)]Gal(b1-4)GlcNAc(b1-2)Man(a1-6)]Man(b1-4)GlcNAc(b1-4)GlcNAc
Procedure, shortened: as §1

[14] = biological target: Fuc(a1-2)[Gal(a1-3)]Gal(b1-4)GlcNAc(b1-2)Man(a1-3)[Fuc(a1-2)[Gal(a1-3)]Gal(b1-4)GlcNAc(b1-2)Man(a1-6)]Man(b1-4)GlcNAc(b1-4)[Fuc(a1-6)]GlcNAc
Procedure, shortened: as §1

[15] = biological target: Fuc(a1-2)[Gal(a1-3)]Gal(b1-4)GlcNAc(b1-3)GalNAc
Procedure, shortened: as §1

[16] = biological target: Fuc(a1-2)[Gal(a1-3)]Gal(b1-4)GlcNAc(b1-3)[Fuc(a1-2)[Gal(a1-3)]Gal(b1-4)GlcNAc(b1-6)]GalNAc
Procedure, shortened: as §1

[17] = biological target: Fuc(a1-2)[Gal(a1-3)]Gal(b1-4)GlcNAc(b1-6)GalNAc
Procedure, shortened: as §1

[18] = biological target: Fuc(a1-2)[Gal(a1-3)]Gal(b1-4)[Fuc(a1-3)]Glc
Procedure, shortened: as §1

[19] = biological target: Fuc(a1-2)[Gal(a1-3)]Gal(b1-4)[Fuc(a1-3)]GlcNAc
Procedure, shortened: as §1

[20] = biological target: Fuc(a1-2)[Gal(a1-3)]Gal(b1-4)[Fuc(a1-3)]GlcNAc(b1-3)GalNAc
Procedure, shortened: as §1

[21] = biological target: Fuc(a1-2)[Gal(a1-4)]Gal(b1-4)GlcNAc
Procedure, shortened: as §1

[22] = biological target: Fuc(a1-2)[GalNAc(a1-3)]Gal
Procedure, shortened: as §1

[23] = biological target: Fuc(a1-2)[GalNAc(a1-3)]Gal(b1-3)GalNAc(a1-3)[Fuc(a1-2)]Gal(b1-4)GlcNAc
Procedure, shortened: as §1

[24] = biological target: Fuc(a1-2)[GalNAc(a1-3)]Gal(b1-3)GalNAc(b1-3)Gal(a1-4)Gal(b1-4)Glc
Procedure, shortened: as §1

[25] = biological target: Fuc(a1-2)[GalNAc(a1-3)]Gal(b1-3)GlcNAc
Procedure, shortened: as §1

[26] = biological target: Fuc(a1-2)[GalNAc(a1-3)]Gal(b1-3)GlcNAc(b1-2)Man(a1-3)[Fuc(a1-2)[GalNAc(a1-3)]Gal(b1-3)GlcNAc(b1-2)Man(a1-6)]Man(b1-4)GlcNAc(b1-4)GlcNAc
Procedure, shortened: as §1

[27] = biological target: Fuc(a1-2)[GalNAc(a1-3)]Gal(b1-3)GlcNAc(b1-2)Man(a1-3)[Fuc(a1-2)[GalNAc(a1-3)]Gal(b1-3)GlcNAc(b1-2)Man(a1-6)]Man(b1-4)GlcNAc(b1-4)[Fuc(a1-6)]GlcNAc
Procedure, shortened: as §1

[28] = biological target: Fuc(a1-2)[GalNAc(a1-3)]Gal(b1-3)GlcNAc(b1-3)GalNAc
Procedure, shortened: as §1

[29] = biological target: Fuc(a1-2)[GalNAc(a1-3)]Gal(b1-3)GlcNAc(b1-6)GalNAc
Procedure, shortened: as §1

[30] = biological target: Fuc(a1-2)[GalNAc(a1-3)]Gal(b1-4)Glc
Procedure, shortened: as §1

[31] = biological target: Fuc(a1-2)[GalNAc(a1-3)]Gal(b1-4)GlcNAc
Procedure, shortened: as §1

[32] = biological target: Fuc(a1-2)[GalNAc(a1-3)]Gal(b1-4)GlcNAc(b1-2)Man
Procedure, shortened: as §1

[33] = biological target: Fuc(a1-2)[GalNAc(a1-3)]Gal(b1-4)GlcNAc(b1-2)Man(a1-3)[Fuc(a1-2)[GalNAc(a1-3)]Gal(b1-4)GlcNAc(b1-2)Man(a1-6)]Man(b1-4)GlcNAc(b1-4)GlcNAc
Procedure, shortened: as §1

[34] = biological target: Fuc(a1-2)[GalNAc(a1-3)]Gal(b1-4)GlcNAc(b1-2)Man(a1-3)[Fuc(a1-2)[GalNAc(a1-3)]Gal(b1-4)GlcNAc(b1-2)Man(a1-6)]Man(b1-4)GlcNAc(b1-4)[Fuc(a1-6)]GlcNAc
Procedure, shortened: as §1

[35] = biological target: Fuc(a1-2)[GalNAc(a1-3)]Gal(b1-4)GlcNAc(b1-3)Gal(b1-4)GlcNAc
Procedure, shortened: as §1

[36] = biological target: Fuc(a1-2)[GalNAc(a1-3)]Gal(b1-4)GlcNAc(b1-3)Gal(b1-4)GlcNAc(b1-3)Gal(b1-4)GlcNAc
Procedure, shortened: as §1

[37] = biological target: Fuc(a1-2)[GalNAc(a1-3)]Gal(b1-4)GlcNAc(b1-3)GalNAc
Procedure, shortened: as §1

[38] = biological target: Fuc(a1-2)[GalNAc(a1-3)]Gal(b1-4)GlcNAc(b1-3)[Fuc(a1-2)[GalNAc(a1-3)]Gal(b1-4)GlcNAc(b1-6)]GalNAc
Procedure, shortened: as §1

[39] = biological target: Fuc(a1-2)[GalNAc(a1-3)]Gal(b1-4)GlcNAc(b1-6)GalNAc
Procedure, shortened: as §1

[40] = biological target: Fuc(a1-2)[GalNAc(a1-3)]Gal(b1-4)[Fuc(a1-3)]GlcNAc
Procedure, shortened: as §1

[41] = biological target: Fuc(a1-2)[GalNAc(a1-3)]Gal(b1-4)[Fuc(a1-3)]GlcNAc(b1-3)GalNAc
Procedure, shortened: as §1

[42] = biological target: Fuc(a1-2)[GalNAc(a1-4)]Gal(b1-4)GlcNAc
Procedure, shortened: as §1

[43] = biological target: Fuc(a1-2)[GalNAc(b1-3)]Gal
Procedure, shortened: as §1

B1: truncCC1G-10077 (Coprinopsis cinerea) (protein)
chain: MHHHHHHHHPLPSPGPGWVLIQNGGTGKFLCSTPSGDIGTADGPETVYDYSVQWRFIQREYTGVYHVVNRATGAYLRQIGTSMPSIGLAEENDDELKDWWMLETYDNSEIGLASIISRWTGNVLDHYGGVSVQALDNNTENSYRSWAIIPARDWLTSFSLVNGQGGLCLAAQYAREETRLSTTANVNDFHAQWVFRKPSGSSGYTIQNKYNNHYVGGTSARWELVVCCNKYFGIRNTSTQKYLAIEDGQVTFQDQDMTDRKQCWELCSGRATDTSGNDYDLIYMDDDLLEVMIPWVGDKQGDLKHYIEKRATKKPPKDKGGWQLPAAGLIKKPKFNDIRQLLQELIEQWEWDVVNEEREQIQTLVSIDEAEARRLLGRRPHPDIVAAYQRSRSSTLFRIDRQGYFNIAGDRYVNIQGQYGDDSYFHIALPVGVRFGREQIRRFLRDSLDRSTSVTITPTTCKPPSGGPDYNRDPDSDGDNSWIKWTIAVVGTSAIKHSEL
- glycan array binding signal (z-score) [1]: 0.519
- glycan array binding signal (z-score) (Fuc(a1-2)Gal6S(b1-4)Glc): -0.27
- glycan array binding signal (z-score) [2]: 1.57
- glycan array binding signal (z-score) (Fuc(a1-2)[Gal(a1-3)]Gal): -0.331
- glycan array binding signal (z-score) [3]: -0.587
- glycan array binding signal (z-score) [4]: -0.018
- glycan array binding signal (z-score) [5]: -0.503
- glycan array binding signal (z-score) [6]: 0.02
- glycan array binding signal (z-score) [7]: 0.613
- glycan array binding signal (z-score) [8]: -0.241
- glycan array binding signal (z-score) [9]: 1.09
- glycan array binding signal (z-score) [10]: -0.237
- glycan array binding signal (z-score) [11]: -0.351
- glycan array binding signal (z-score) [12]: -1.02
- glycan array binding signal (z-score) [13]: 0.307
- glycan array binding signal (z-score) [14]: -0.019
- glycan array binding signal (z-score) [15]: 0.073
- glycan array binding signal (z-score) [16]: 1.53
- glycan array binding signal (z-score) [17]: 0.037
- glycan array binding signal (z-score) [18]: -0.907
- glycan array binding signal (z-score) [19]: 1.66
- glycan array binding signal (z-score) [20]: 0.818
- glycan array binding signal (z-score) [21]: -0.746
- glycan array binding signal (z-score) [22]: -1.11
- glycan array binding signal (z-score) [23]: 1.06
- glycan array binding signal (z-score) [24]: -0.475
- glycan array binding signal (z-score) [25]: -0.551
- glycan array binding signal (z-score) [26]: -0.568
- glycan array binding signal (z-score) [27]: -0.214
- glycan array binding signal (z-score) [28]: 3.65
- glycan array binding signal (z-score) [29]: -1.08
- glycan array binding signal (z-score) [30]: -0.829
- glycan array binding signal (z-score) [31]: -1.17
- glycan array binding signal (z-score) [32]: -0.17
- glycan array binding signal (z-score) [33]: 0.045
- glycan array binding signal (z-score) [34]: 0.625
- glycan array binding signal (z-score) [35]: -1.1
- glycan array binding signal (z-score) [36]: 0.822
- glycan array binding signal (z-score) [37]: 1.18
- glycan array binding signal (z-score) [38]: 0.208
- glycan array binding signal (z-score) [39]: -0.612
- glycan array binding signal (z-score) [40]: 0.264
- glycan array binding signal (z-score) [41]: 1.38
- glycan array binding signal (z-score) [42]: -0.664
- glycan array binding signal (z-score) [43]: -0.891
